Results deposited as PubChem BioAssay AID1259405 (NCATS, 2018).
Here is an unselected part of about 50,000 deposited reagents. About 4,000 of them (8%) count as active. 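Mouse siRNA library applied to hamster cells; one well for each siRNA.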 The numbers tell different reagents against one gene apart.

Test: 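Knock-downs that lift recombinant protein yield in hamster ovary cells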 (primary screen)
System: Chinese hamster CHO-K1 ovary cells with stable secreted eGFP expression
Reagent: single siRNA against mouse genes, 0.8 pmol siRNA per well (2 µl of 400 nM stock)
Timing: 3 days
Read-out: 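Percent of the per-plate non-targeting control median for intracellular GFP per well by laser scanning cytometry and for cell viability by ATP luminescence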
Scale: GFP, % of control: higher = more GFP per well, higher productivity; viability (ATP), % of control: higher = more viable cells (more ATP)
Hit rule: 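Called active when intracellular GFP, relative to negative control, is at or above 120%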

"GFP, % of control","viability (ATP), % of control",activity call,Gene,siRNA no.
76.8,74.8,inactive,Zfp273 (zinc finger protein 273),1
74.1,56.7,inactive,Zfp273 (zinc finger protein 273),2
119,117,inactive,Zfp273 (zinc finger protein 273),3
80.6,105,inactive,"Tmprss12 (transmembrane (C-terminal) protease, serine 12)",1
58,67.4,inactive,"Tmprss12 (transmembrane (C-terminal) protease, serine 12)",2
71.6,43.2,inactive,Or4a81 (olfactory receptor family 4 subfamily A member 81),1
48.2,60,inactive,Or4a81 (olfactory receptor family 4 subfamily A member 81),2
93.8,82.7,inactive,Or4a81 (olfactory receptor family 4 subfamily A member 81),3
56.7,89.9,inactive,Or12k7 (olfactory receptor family 12 subfamily K member 7),1
59.1,75.5,inactive,Or12k7 (olfactory receptor family 12 subfamily K member 7),2
64.8,46.9,inactive,Or12k7 (olfactory receptor family 12 subfamily K member 7),3
15.1,16.7,inactive,Or6k4 (olfactory receptor family 6 subfamily K member 4),1
97.6,104,inactive,Or6k4 (olfactory receptor family 6 subfamily K member 4),2
101,69.8,inactive,Or6k4 (olfactory receptor family 6 subfamily K member 4),3
24.1,13.2,inactive,Prm2 (protamine 2),1
87.5,49.5,inactive,Prm2 (protamine 2),2
74.2,87.5,inactive,Prm2 (protamine 2),3
129,59,active,Gnat1 (G protein subunit alpha transducin 1),1
60.4,86,inactive,Gnat1 (G protein subunit alpha transducin 1),2
81.6,59.8,inactive,Gnat1 (G protein subunit alpha transducin 1),3
86.3,83.8,inactive,Ubr2 (ubiquitin protein ligase E3 component n-recognin 2),1
107,86.4,inactive,Ubr2 (ubiquitin protein ligase E3 component n-recognin 2),2
94.9,60.5,inactive,Ubr2 (ubiquitin protein ligase E3 component n-recognin 2),3
57.1,80.7,inactive,Panx1 (pannexin 1),1
77,51.3,inactive,Panx1 (pannexin 1),2
62.5,75.9,inactive,Panx1 (pannexin 1),3
75.1,84.5,inactive,Slc35f5,1
106,80.9,inactive,Slc35f5,2
95,78.8,inactive,Slc35f5,3
106,76.9,inactive,Tmeff2,1
48.6,60.3,inactive,Tmeff2,2
59.1,65.4,inactive,Tmeff2,3
92.2,68.1,inactive,Pik3cd,1
108,86.8,inactive,Syt5 (synaptotagmin V),1
95.7,104,inactive,Syt5 (synaptotagmin V),2
117,110,inactive,Cd44 (CD44 antigen),1
156,97.4,active,Cd44 (CD44 antigen),2
90.3,107,inactive,Hsf2 (heat shock factor 2),1
44.9,72,inactive,Hsf2 (heat shock factor 2),2
98.4,108,inactive,Hsf2 (heat shock factor 2),3
77.4,32.4,inactive,Pcnx3 (pecanex homolog 3),1
68.7,73.2,inactive,Pcnx3 (pecanex homolog 3),2
77.2,51.8,inactive,Pcnx3 (pecanex homolog 3),3
82.6,57.1,inactive,"Cyp2c70 (cytochrome P450, family 2, subfamily c, polypeptide 70)",1
109,98.5,inactive,"Cyp2c70 (cytochrome P450, family 2, subfamily c, polypeptide 70)",2
84.3,81.9,inactive,"Cyp2c70 (cytochrome P450, family 2, subfamily c, polypeptide 70)",3
86.3,72.8,inactive,3110040N11Rik (RIKEN cDNA 3110040N11 gene),1
81.4,100,inactive,3110040N11Rik (RIKEN cDNA 3110040N11 gene),2
86.1,59,inactive,3110040N11Rik (RIKEN cDNA 3110040N11 gene),3
90.3,72.1,inactive,Or2ah1 (olfactory receptor family 2 subfamily AH member 1),1
74.8,54.3,inactive,Or2ah1 (olfactory receptor family 2 subfamily AH member 1),2
99.3,85.8,inactive,Or2ah1 (olfactory receptor family 2 subfamily AH member 1),3
78.3,73.8,inactive,Dnajc4 (DnaJ heat shock protein family (Hsp40) member C4),1
85.4,79.3,inactive,Dnajc4 (DnaJ heat shock protein family (Hsp40) member C4),2
91.4,116,inactive,Dnajc4 (DnaJ heat shock protein family (Hsp40) member C4),3
36.3,49.2,inactive,Esco2,1
63.7,71.6,inactive,Esco2,2
56.8,41,inactive,Esco2,3
129,83.1,active,Ccdc80 (coiled-coil domain containing 80),1
44.1,34,inactive,Ccdc80 (coiled-coil domain containing 80),2
79.1,99.2,inactive,Ccdc80 (coiled-coil domain containing 80),3
82.6,71.9,inactive,Ptp4a3 (protein tyrosine phosphatase 4a3),1
83.7,87.7,inactive,Ptp4a3 (protein tyrosine phosphatase 4a3),2
33.2,67.5,inactive,Ptp4a3 (protein tyrosine phosphatase 4a3),3
97.7,111,inactive,"Fam228a (family with sequence similarity 228, member A)",1
71.6,58.9,inactive,"Fam228a (family with sequence similarity 228, member A)",2
34.9,68.1,inactive,"Fam228a (family with sequence similarity 228, member A)",3
128,94.7,active,Upf1 (UPF1 RNA helicase and ATPase),1
64.2,70.3,inactive,Upf1 (UPF1 RNA helicase and ATPase),2
89.2,86.2,inactive,Upf1 (UPF1 RNA helicase and ATPase),3
91.8,102,inactive,Pramel20 (PRAME like 20),1
63.9,56.4,inactive,Pramel20 (PRAME like 20),2
105,56.9,inactive,Pramel20 (PRAME like 20),3
45.2,51.8,inactive,Emilin3 (elastin microfibril interfacer 3),1
68,78.6,inactive,Emilin3 (elastin microfibril interfacer 3),2
64.2,56.6,inactive,Emilin3 (elastin microfibril interfacer 3),3
47.3,74.5,inactive,Gm4876 (predicted gene 4876),1
90.3,93.4,inactive,Gm4876 (predicted gene 4876),2
75.9,70.4,inactive,Gm4876 (predicted gene 4876),3
85.3,86.3,inactive,Slc6a7,1
78.3,66.1,inactive,Slc6a7,2
83.1,89.7,inactive,Slc6a7,3
54,60.9,inactive,"Grm6 (glutamate receptor, metabotropic 6)",1
76,83.6,inactive,"Grm6 (glutamate receptor, metabotropic 6)",2
71.6,54.6,inactive,"Grm6 (glutamate receptor, metabotropic 6)",3

Hits, among the entries above:
"GFP, % of control","viability (ATP), % of control",activity call,Gene,siRNA no.
129,59,active,Gnat1 (G protein subunit alpha transducin 1),1
156,97.4,active,Cd44 (CD44 antigen),2
129,83.1,active,Ccdc80 (coiled-coil domain containing 80),1
128,94.7,active,Upf1 (UPF1 RNA helicase and ATPase),1
